Here are results for two molecules from article PMC6554275.

The test deals with T1, wild-type human myc-tagged SFRP3 (human) (UniProt Q92765).
T1 sequence: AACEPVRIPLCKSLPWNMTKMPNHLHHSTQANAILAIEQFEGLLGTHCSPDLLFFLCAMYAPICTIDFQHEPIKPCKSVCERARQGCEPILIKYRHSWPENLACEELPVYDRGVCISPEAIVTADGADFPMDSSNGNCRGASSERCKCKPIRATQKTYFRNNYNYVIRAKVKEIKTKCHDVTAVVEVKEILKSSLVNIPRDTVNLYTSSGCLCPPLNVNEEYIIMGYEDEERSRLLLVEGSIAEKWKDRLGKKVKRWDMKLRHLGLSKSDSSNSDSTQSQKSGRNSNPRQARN
Briefly: co-IP; HEK293 cells transiently co-transfected with SFRP3-myc and V5/HA-tagged Wnt; lysis in 150 mM NaCl, 50 mM Tris pH 8, 1% NP40; anti-myc conjugated beads 2 h at 4 °C; blots with anti-myc, anti-V5, anti-HA.

These are yes or no findings as the source states them, for the method shown. Binding seen in cells or lysates may run through a third protein. Some entries that bind do so weakly or less than the wild type. Where a sequence is shown, tags or fusion partners need not be part of it.

B1: Active Wnt5a-V5 (ligand, UniProt P41221 62-380)
chain: IIGAQPLCSQLAGLSQGQKKLCHLYQDHMQYIGEGAKTGIKECQYQFRHRRWNCSTVDNTSVFGRVMQIGSRETAFTYAVSAAGVVNAMSRACREGELSTCGCSRAARPKDLPRDWLWGGCGDNIDYGYRFAKEFVDARERERIHAKGSYESARILMNLHNNEAGRRTVYNLADVACKCHGVSGSCSLKTCWLQLADFRKVGDALKEKYDSAAAMRLNSRGKLVQVNSRFNSPTTQDLVYIDPSPDYCVRNESTGSLGTQGRLCNKTSEGMDGCELMCCGRGYDQFKTVQTERCHCKFHWCCYVKCKKCTEIVDQFVCK
In the case of B1, the binding result is reported as “binds”.

B2: Active Wnt2-V5 (ligand, UniProt P09544 26-360)
chain: SWWYMRATGGSSRVMCDNVPGLVSSQRQLCHRHPDVMRAISQGVAEWTAECQHQFRQHRWNCNTLDRDHSLFGRVLLRSSRESAFVYAISSAGVVFAITRACSQGEVKSCSCDPKKMGSAKDSKGIFDWGGCSDNIDYGIKFARAFVDAKERKGKDARALMNLHNNRAGRKAVKRFLKQECKCHGVSGSCTLRTCWLAMADFRKTGDYLWRKYNGAIQVVMNQDGTGFTVANERFKKPTKNDLVYFENSPDYCIRDREAGSLGTAGRVCNLTSRGMDSCEVMCCGRGYDTSHVTRMTKCGCKFHWCCAVRCQDCLEALDVHTCKAPKNADWTTAT
Consider B2, for which the binding entry is “binds”.
